Measurements reported in PubChem BioAssay AID1053208 (Peter MacCallum Cancer Centre, 2014)

Screen: 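Synthetic lethal interactions between gene loss and doxorubicin in osteosarcoma cells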 (primary screen)
Cell system: mouse osteosarcoma cells, early-passage culture from an engineered mouse model of fibroblastic bone tumour
Reagent: siRNA pool against mouse genes, 40 nM
Timing: about 120 h (48 h before drug, then 72 h with drug)
Treatment: doxorubicin 100 nM for 72 h, roughly 30-40% inhibitory dose
Measured: 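Luminescent ATP signal taken as viability with or without 100 nM doxorubicin for 72 h; mean of two wells set against non-targeting siRNA and turned into robust z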
Reading the numbers: viability z-score with doxorubicin: higher = more viable cells under doxorubicin; viability z-score without drug: higher = more viable cells with knock-down alone
Active means: 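Called active if knock-down leaves viability unchanged without drug (z within -2 to 2) but lowers it with doxorubicin (z at or under -2)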
Here is one part, drawn at random, of about 17,000 reagents tested. Of all reagents, 788 (4.7%) were called active. 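Calls rest on z-score classes alone; an extra cut-off of viability at most 70% of control was not applied to them.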 A number with no mark means an inactive call. Not all columns of the deposit are shown.

The opening 3 entries, to show the layout:
{"target": "Ttc1 (tetratricopeptide repeat domain 1)", "combined z-score class": "low cell count with doxorubicin only (active)", "viability z-score with doxorubicin": -3.82, "viability z-score without drug": -1.85}
{"target": "Il1b (interleukin 1 beta)", "combined z-score class": "no change with or without drug", "viability z-score with doxorubicin": 0.22, "viability z-score without drug": 0.51}
{"target": "Or13p10 (olfactory receptor family 13 subfamily P member 10)", "combined z-score class": "low cell count with and without drug", "viability z-score with doxorubicin": -2.92, "viability z-score without drug": -2.02}

Results, from the start:
{"target": "Ttc1 (tetratricopeptide repeat domain 1)", "combined z-score class": "low cell count with doxorubicin only (active)", "viability z-score with doxorubicin": -3.82, "viability z-score without drug": -1.85}
{"target": "Il1b (interleukin 1 beta)", "combined z-score class": "no change with or without drug", "viability z-score with doxorubicin": 0.22, "viability z-score without drug": 0.51}
{"target": "Or13p10 (olfactory receptor family 13 subfamily P member 10)", "combined z-score class": "low cell count with and without drug", "viability z-score with doxorubicin": -2.92, "viability z-score without drug": -2.02}
{"target": "Ubp1 (upstream binding protein 1)", "combined z-score class": "no change with or without drug", "viability z-score with doxorubicin": 0, "viability z-score without drug": -0.84}
{"target": "Or3a1 (olfactory receptor family 3 subfamily A member 1)", "combined z-score class": "no change with or without drug", "viability z-score with doxorubicin": 0.9, "viability z-score without drug": 0.67}
{"target": "Zfp74 (zinc finger protein 74)", "combined z-score class": "high cell count without drug only", "viability z-score with doxorubicin": 0.56, "viability z-score without drug": 2.19}
{"target": "Tas2r115 (taste receptor, type 2, member 115)", "combined z-score class": "high cell count with doxorubicin only", "viability z-score with doxorubicin": 2.81, "viability z-score without drug": 1.18}
{"target": "Zdhhc20 (zinc finger, DHHC domain containing 20)", "combined z-score class": "no change with or without drug", "viability z-score with doxorubicin": -0.9, "viability z-score without drug": 0.34}
{"target": "Ints14 (integrator complex subunit 14)", "combined z-score class": "no change with or without drug", "viability z-score with doxorubicin": -0.11, "viability z-score without drug": 0.84}
{"target": "Nsmce3 (NSE3 homolog, SMC5-SMC6 complex component)", "combined z-score class": "low cell count with doxorubicin only (active)", "viability z-score with doxorubicin": -3.37, "viability z-score without drug": -1.52}
{"target": "Cmya5 (cardiomyopathy associated 5)", "combined z-score class": "no change with or without drug", "viability z-score with doxorubicin": -1.12, "viability z-score without drug": 1.35}
{"target": "Sftpc (surfactant associated protein C)", "combined z-score class": "no change with or without drug", "viability z-score with doxorubicin": 0.22, "viability z-score without drug": 0.17}
{"target": "Strm (striamin)", "combined z-score class": "no change with or without drug", "viability z-score with doxorubicin": -0.22, "viability z-score without drug": 0.17}
{"target": "Sh2d2a (SH2 domain containing 2A)", "combined z-score class": "no change with or without drug", "viability z-score with doxorubicin": -1.12, "viability z-score without drug": 0.34}
{"target": "Six4 (sine oculis-related homeobox 4)", "combined z-score class": "no change with or without drug", "viability z-score with doxorubicin": 0.22, "viability z-score without drug": -0.17}
{"target": "Ern1 (endoplasmic reticulum to nucleus signalling 1)", "combined z-score class": "no change with or without drug", "viability z-score with doxorubicin": -1.12, "viability z-score without drug": -0.17}
{"target": "Dlx6 (distal-less homeobox 6)", "combined z-score class": "no change with or without drug", "viability z-score with doxorubicin": 1.01, "viability z-score without drug": -0.84}
{"target": "Vpreb1a (V-set pre-B cell surrogate light chain 1A)", "combined z-score class": "no change with or without drug", "viability z-score with doxorubicin": -0.56, "viability z-score without drug": 0.51}
{"target": "Plau (plasminogen activator, urokinase)", "combined z-score class": "no change with or without drug", "viability z-score with doxorubicin": 0.22, "viability z-score without drug": 0.84}
{"target": "Dnajb1 (DnaJ heat shock protein family (Hsp40) member B1)", "combined z-score class": "no change with or without drug", "viability z-score with doxorubicin": -0.45, "viability z-score without drug": 0.67}
{"target": "Slc4a8", "combined z-score class": "no change with or without drug", "viability z-score with doxorubicin": 0.34, "viability z-score without drug": 1.52}
{"target": "Klkb1 (kallikrein B, plasma 1)", "combined z-score class": "no change with or without drug", "viability z-score with doxorubicin": -0.45, "viability z-score without drug": 0.84}
{"target": "Zfp64 (zinc finger protein 64)", "combined z-score class": "no change with or without drug", "viability z-score with doxorubicin": -0.45, "viability z-score without drug": 1.35}
{"target": "Bmper (BMP-binding endothelial regulator)", "combined z-score class": "no change with or without drug", "viability z-score with doxorubicin": -0.22, "viability z-score without drug": -1.18}
{"target": "Foxd3 (forkhead box D3)", "combined z-score class": "no change with or without drug", "viability z-score with doxorubicin": 0.9, "viability z-score without drug": 0.84}
{"target": "Hoxb13 (homeobox B13)", "combined z-score class": "no change with or without drug", "viability z-score with doxorubicin": -0.22, "viability z-score without drug": -1.01}
{"target": "Erc2 (ELKS/RAB6-interacting/CAST family member 2)", "combined z-score class": "no change with or without drug", "viability z-score with doxorubicin": -0.67, "viability z-score without drug": 0.51}
{"target": "Sp140l2 (Sp140 nuclear body protein like 2)", "combined z-score class": "no change with or without drug", "viability z-score with doxorubicin": 1.46, "viability z-score without drug": 0.17}
{"target": "Asb12 (ankyrin repeat and SOCS box-containing 12)", "combined z-score class": "no change with or without drug", "viability z-score with doxorubicin": 0.67, "viability z-score without drug": 0.34}
{"target": "Mcf2 (mcf.2 transforming sequence)", "combined z-score class": "no change with or without drug", "viability z-score with doxorubicin": 0.56, "viability z-score without drug": -0.67}
{"target": "Slc39a14", "combined z-score class": "no change with or without drug", "viability z-score with doxorubicin": 0.9, "viability z-score without drug": 0.34}
{"target": "Or4e1 (olfactory receptor family 4 subfamily E member 1)", "combined z-score class": "no change with or without drug", "viability z-score with doxorubicin": 0, "viability z-score without drug": -1.18}
{"target": "Zfp455 (zinc finger protein 455)", "combined z-score class": "no change with or without drug", "viability z-score with doxorubicin": 0.11, "viability z-score without drug": 0.51}
{"target": "Tmem40 (transmembrane protein 40)", "combined z-score class": "no change with or without drug", "viability z-score with doxorubicin": 0.9, "viability z-score without drug": 1.18}
{"target": "Smc3 (structural maintenance of chromosomes 3)", "combined z-score class": "no change with or without drug", "viability z-score with doxorubicin": -1.12, "viability z-score without drug": 0.17}
{"target": "Rpl10 (ribosomal protein L10)", "combined z-score class": "low cell count with and without drug", "viability z-score with doxorubicin": -6.3, "viability z-score without drug": -4.22}
